Assay results as given in publication doi:10.1101/617910.
Results are given in words; binding and its absence hold for the method and conditions named. In cells and extracts the contact can be indirect. A yes stands for co-enrichment or nearness to the bait. Other partners may have been found.

T1: Tsr1-TAP (yeast), Q07381
T1 chain: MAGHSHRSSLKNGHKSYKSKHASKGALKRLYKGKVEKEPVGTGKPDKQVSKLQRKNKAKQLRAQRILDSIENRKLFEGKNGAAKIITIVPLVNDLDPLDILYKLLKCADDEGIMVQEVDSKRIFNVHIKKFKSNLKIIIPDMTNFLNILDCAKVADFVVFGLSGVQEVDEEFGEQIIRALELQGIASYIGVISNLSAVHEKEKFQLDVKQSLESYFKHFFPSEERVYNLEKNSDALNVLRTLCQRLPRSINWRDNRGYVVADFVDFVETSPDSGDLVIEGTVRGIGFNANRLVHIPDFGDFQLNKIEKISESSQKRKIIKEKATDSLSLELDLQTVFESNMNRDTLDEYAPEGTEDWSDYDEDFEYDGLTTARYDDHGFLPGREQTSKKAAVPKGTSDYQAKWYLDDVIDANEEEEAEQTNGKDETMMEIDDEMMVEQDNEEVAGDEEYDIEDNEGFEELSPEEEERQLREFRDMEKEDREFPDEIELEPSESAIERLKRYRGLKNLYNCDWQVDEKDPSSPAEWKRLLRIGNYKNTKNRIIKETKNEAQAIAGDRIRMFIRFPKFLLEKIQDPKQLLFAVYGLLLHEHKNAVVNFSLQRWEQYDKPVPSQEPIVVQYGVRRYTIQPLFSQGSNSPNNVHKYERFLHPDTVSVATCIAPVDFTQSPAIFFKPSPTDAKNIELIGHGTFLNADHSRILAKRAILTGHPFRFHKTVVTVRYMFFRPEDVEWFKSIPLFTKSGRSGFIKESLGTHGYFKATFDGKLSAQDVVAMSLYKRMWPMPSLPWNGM

T2: Tsr1-TAP (yeast) (UniProt Q07381)
T2 sequence: T1 chain

B1: Dim1, P41819 1-318 (protein)
chain: MGKAAKKKYSGATSSKQVSAEKHLSSVFKFNTDLGQHILKNPLVAQGIVDKAQIRPSDVVLEVGPGTGNLTVRILEQAKNVVAVEMDPRMAAELTKRVRGTPVEKKLEIMLGDFMKTELPYFDICISNTPYQISSPLVFKLINQPRPPRVSILMFQREFALRLLARPGDSLYCRLSANVQMWANVTHIMKVGKNNFRPPPQVESSVVRLEIKNPRPQVDYNEWDGLLRIVFVRKNRTISAGFKSTTVMDILEKNYKTFLAMNNEMVDDTKGSMHDVVKEKIDTVLKETDLGDKRAGKCDQNDFLRLLYAFHQVGIHFS
B2: Nob1 (protein, UniProt Q08444 1-459)
chain: MTENQTAHVRALILDATPLITQSYTHYQNYAQSFYTTPTVFQEIKDAQARKNLEIWQSLGTLKLVHPSENSIAKVSTFAKLTGDYSVLSANDLHILALTYELEIKLNNGDWRLRKKPGDALDASKADVGTDGKQKLTEDNKKEEDSESVPKKKNKRRGGKKQKAKREAREAREAENANLELESKAEEHVEEAGSKEQICNDENIKESSDLNEVFEDADDDGDWITPENLTEAIIKDSGEDTTGSLGVEASEEDRHVALNRPENQVALATGDFAVQNVALQMNLNLMNFMSGLKIKRIRNYMLRCHACFKIFPLPKDGKPKHFCASCGGQGTLLRCAVSVDSRTGNVTPHLKSNFQWNNRGNRYSVASPLSKNSQKRYGKKGHVHSKPQENVILREDQKEYEKVIKQEEWTRRHNEKILNNWIGGGSADNYISPFAITGLKQHNVRIGKGRYVNSSKRRS

Columns and labels:
Tsr1-TAP (yeast), Q07381 = molecular target: T1, Tsr1-TAP (yeast), Q07381; test: affinity purification with mass spectrometry; conditions: remark: other sources report otherwise
Tsr1-TAP (yeast) = molecular target: T2, Tsr1-TAP (yeast); test: affinity purification with mass spectrometry

Binder	binding (Tsr1-TAP (yeast), Q07381)	binding (Tsr1-TAP (yeast))
B1	binds	–
B2	–	binds weakly
